A: 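Assay on Mycobacterium tuberculosis, filed only as a heat shock assay from Cornell; the read-out is not stated. The concentration is filed as 10 mM, unlikely as a test dose, so the dose is not known. Direction is inferred from retests: higher values go with stronger inhibition. Of about 69,000 compounds tested this way, about 930 (1.4%) reached 50% or more in at least one test.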
B: 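Primary screen of methionyl-tRNA synthetase; the read-out is not stated. Target: Methionyl-tRNA synthetase (putative), Leishmania donovani (UniProt E9BF75). The test concentration is not given. Values are per cent inhibition. About 68,000 compounds were tested under these conditions; 0.035% (about 24) showed 50% or more at least once.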
C: 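Whole-cell assay for inhibitors of Mycobacterium tuberculosis growth, labelled Cornell in the record; the read-out is not stated. The concentration is filed as 10 mM, unlikely as a test dose, so the dose is not known. Higher means stronger inhibition (inferred from two other growth screens of the library). About 53,000 compounds were tested under these conditions; 1.7% (about 900) showed 50% or more at least once.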

By UniProt entry, the sequences of proteins in these tests, tags left out.
UniProt E9BF75, entry or part of it: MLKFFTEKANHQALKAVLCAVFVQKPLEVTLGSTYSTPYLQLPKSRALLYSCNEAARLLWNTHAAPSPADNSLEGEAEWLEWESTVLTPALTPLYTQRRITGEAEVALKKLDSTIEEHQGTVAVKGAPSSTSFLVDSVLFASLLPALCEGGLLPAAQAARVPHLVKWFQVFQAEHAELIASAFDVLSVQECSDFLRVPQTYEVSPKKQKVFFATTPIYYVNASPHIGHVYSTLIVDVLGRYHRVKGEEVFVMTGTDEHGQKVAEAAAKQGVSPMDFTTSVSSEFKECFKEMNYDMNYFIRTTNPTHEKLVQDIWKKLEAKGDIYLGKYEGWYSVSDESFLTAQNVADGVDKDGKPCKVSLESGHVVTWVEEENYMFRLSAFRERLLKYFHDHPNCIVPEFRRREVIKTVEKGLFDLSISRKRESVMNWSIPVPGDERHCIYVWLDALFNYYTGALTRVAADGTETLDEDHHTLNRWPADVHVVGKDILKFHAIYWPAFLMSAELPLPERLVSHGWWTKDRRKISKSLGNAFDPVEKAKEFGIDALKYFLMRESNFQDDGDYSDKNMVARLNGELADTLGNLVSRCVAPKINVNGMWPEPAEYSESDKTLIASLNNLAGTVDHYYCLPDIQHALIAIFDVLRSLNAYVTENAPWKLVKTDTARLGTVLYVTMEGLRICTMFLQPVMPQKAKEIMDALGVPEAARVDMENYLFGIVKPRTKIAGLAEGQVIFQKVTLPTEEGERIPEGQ

All values are in %.
How 0% and 100% were set is not recorded. Most values in the screen are low, and negative values occur.
The compounds are a random part of those screened.

Result for O=C(O)C(F)(F)F.[H][C@@]12CN(C(=O)c3ccc(C)nc3)C[C@]1([H])OCCN2CCN1CCCC1 was A: 8.47%; C: -3.886%.
Result for COc1c(CNCC(O)c2ccc(C)cc2)c(C(C)C)nn1C (stereo not shown) was A: 3.997%; B: 16.57%.
Result for Fc1cccc(CN2CCOCC3(CCN(C4CCOCC4)C3)C2)c1.O=C(O)C(F)(F)F.O=C(O)C(F)(F)F (stereo not shown) was A: -19.84%; C: 3.801%.
Result for CN1CCCC1CNC(=O)c1nnn(-c2ccc(F)cc2)c1C1CC1 (stereo not shown) was A: -3.304%; B: 3.81%; C: 9.882%.
Result for CCn1cnnc1CN(C)c1nccc(C2CCCC2)n1 was A: -18.75%; B: 3.621%; C: 26.66%.
Result for Cc1ncc(-c2ccccn2)c(CCNC(=O)C2CCCC2)n1 was A: -5.802%; B: 4.127%; C: -18.28%.
Result for CC(C)N1CCC(CC(=O)NC(C(=O)O)c2cccc(F)c2)CC1 (stereo not shown) was A: -4.023%; B: 14.84%.
Result for CCOCCN1CCN(CCOCC(F)(F)F)CC1 was A: -7.048%; B: 11.17%.
Result for CN1CCC(c2nnc(CN3CCCCC3)n2C)CC1 was A: -20.14%; B: 6.805%; C: -19.5%.
Result for CC(O)C1CCN(C(=O)CCOc2ccccc2F)CC1 (stereo not shown) was A: 10.26%; B: 17.96%; C: -18.99%.
Result for CCC[C@H]1CN(C2CCOCC2)C[C@@H]1NC(=O)CCCn1ccnc1 was A: -0.6935%; B: -3.064%; C: -6.311%.
Result for CC(Cn1cc(Br)cn1)C(=O)Nc1ccc(Cl)cn1 (stereo not shown) was A: 11.16%; B: 12.16%; C: 12.48%.
Result for Cc1ccc(Cl)cc1NCc1nc2n(n1)CCCCC2 was A: -22.02%; B: 6.232%; C: -11.08%.
Result for Cc1cc(CCC(=O)NCc2ncc[nH]2)ccc1Br was A: -8.732%; B: 19%; C: 19.68%.
Result for CN1CCOC(CNCc2coc(-c3cccc(F)c3)n2)C1 (stereo not shown) was A: -29.83%; B: 6.667%; C: -57.44%.
Result for CSc1ccccc1C(=O)N1CCN(C)C2(CCC(=O)N(C)CC2)C1 (stereo not shown) was A: -0.05064%; B: 18.02%.
Result for CCc1noc(CCC(=O)N[C@@H]2CC[C@@H](n3ccnc3)[C@@H]2O)n1 was A: 3.148%; B: 10.32%; C: -1.721%.
Result for CC(CO)(NCc1noc(Cc2ccccc2)n1)C1CCCCC1 (stereo not shown) was A: -28.85%; B: 12.77%; C: 19.43%.
Result for O=C(CCNc1ccc(Br)cn1)NCc1ccncc1 was A: -2.741%; B: 7.102%.
Result for Cc1ccc(-c2cn[nH]c2C2CCCN(c3ncccn3)C2)cc1 (stereo not shown) was A: -0.9903%; B: 16.1%; C: 30.22%.
Result for Cc1cc2[nH]c(CN3CCOC(c4ccc(F)cc4)C3)cc(=O)n2n1 (stereo not shown) was A: -13.01%; B: 17.18%; C: 9.001%.
Result for Cc1cnn(CC2CCCN2CCc2nc3ccccc3c(=O)[nH]2)c1 (stereo not shown) was A: 98.35%; B: 8.92%; C: 106.5%.
Result for CNC(=O)CCN1CCN(C(C)c2ccc(Cl)cc2)CC1 (stereo not shown) was A: -14.05%; B: 11.04%; C: 1.933%.
Result for COc1ccc(-c2nc(CN(C)Cc3nncn3C)c(C)o2)c(C)c1C was A: 28.97%; B: 14.5%; C: 40.19%.
Result for CCn1ncc(CN(C)C(=O)c2cc(C(F)(F)F)n(C)n2)c1C was A: -47.06%; B: 13.6%; C: 9.297%.
Result for CCC[C@H]1CN(CCS(C)(=O)=O)C[C@@H]1NC(=O)c1cccnn1 was A: -19.75%; B: 2.29%; C: -7.165%.
Result for Cc1nn(C)c(C)c1C(=O)NN1CCOCC1 was A: 13.27%; B: 18.98%; C: 18.04%.
Result for Cc1ncc(C(=O)N2CCCC(n3nc(C)nc3C)C2)c(C(C)C)n1 (stereo not shown) was A: 10.71%; B: 11.05%.
Result for CN1CCCN(C(=O)c2nnn(-c3ccc(C(F)(F)F)cc3)n2)CC1 was A: 4.114%; B: 11.51%; C: 13.29%.
Result for O=C(O)C(F)(F)F.[H][C@@]12OCCN(CCOCc3ccccc3)[C@@]1([H])CC[C@H]2OC was A: -29.24%; C: -10.37%.
Result for COc1ccc(OC)c(CNc2c(O)c(=O)c2=O)c1 was A: 19.36%; B: 18.08%; C: 26.99%.
Result for COc1ccc(CNCc2c(C(C)C)nn(C)c2N(C)C)cn1 was A: 21.1%; B: 12.02%.

Measurements from “University of Dundee, Small-Polar-MMV Screening Library” (2021), ChEMBL document CHEMBL3988442.